Source: patent US20150204870A1
No constants are given. Whether binding was seen depends on the method and setting. Some results given as binding are weak or reduced against the parent protein; the word gives no strength.

Experiments:
[1] = target: T1, podocalyxin (glycoprotein secreted into the culture supernatant of undifferentiated ES/iPS cells) (human) (UniProt O00592); test: sandwich ELISA, biotinylated rBC2LCN on streptavidin plate, HRP-labelled detection lectin, A450
T1 sequence (looked up): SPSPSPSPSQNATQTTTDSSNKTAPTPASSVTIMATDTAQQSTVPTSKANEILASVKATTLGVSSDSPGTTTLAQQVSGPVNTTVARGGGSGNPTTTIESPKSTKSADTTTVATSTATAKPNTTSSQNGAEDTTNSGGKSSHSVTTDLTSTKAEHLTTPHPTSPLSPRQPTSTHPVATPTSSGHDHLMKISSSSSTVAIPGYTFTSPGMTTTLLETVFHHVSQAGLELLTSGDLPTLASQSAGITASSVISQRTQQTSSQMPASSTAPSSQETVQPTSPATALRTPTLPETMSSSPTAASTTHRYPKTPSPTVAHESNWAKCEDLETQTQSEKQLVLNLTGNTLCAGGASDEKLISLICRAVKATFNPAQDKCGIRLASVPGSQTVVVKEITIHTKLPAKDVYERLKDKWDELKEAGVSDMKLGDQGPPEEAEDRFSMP

[2] = target: T1, podocalyxin (glycoprotein secreted into the culture supernatant of undifferentiated ES/iPS cells) (human); test: Cy3-labelled lectin overlay on marker captured from iPS culture supernatant by immobilised rBC2LCN

- binding [1]: binds
- binding [2]: binds
B1: rXCL (recombinant Xerocomus chrysenteron lectin) (protein)
chain: MGHMSYSITLRVYQTNRDRGYFSIVEKTVWHFANGGTWSEANGAHTLTQGGSGTSGVLRFLSTKGERITVAVGVHNYKRWCDVVTGLKPDETALVINPQYYNNGGRDYVREKQLAEYSVTSAIGTKVEVVYTVAEGNNLEANVIFS
